{"sequences": {"note": "Amino acid sequences for entries named in this document (tags omitted). A change or cut given only in a name is not applied to a line headed by its entry.", "UniProt Q13323": "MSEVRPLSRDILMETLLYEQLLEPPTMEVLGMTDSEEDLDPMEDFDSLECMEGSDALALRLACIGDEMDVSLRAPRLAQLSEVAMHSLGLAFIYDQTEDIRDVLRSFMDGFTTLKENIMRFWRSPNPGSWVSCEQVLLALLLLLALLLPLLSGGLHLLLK"}, "source": "paper PMC4660212", "molecular_target": "T1, FATE1, as transfected for Fig. 3e (legend prints 'FATE') (UniProt Q969F0)", "T1 sequence": "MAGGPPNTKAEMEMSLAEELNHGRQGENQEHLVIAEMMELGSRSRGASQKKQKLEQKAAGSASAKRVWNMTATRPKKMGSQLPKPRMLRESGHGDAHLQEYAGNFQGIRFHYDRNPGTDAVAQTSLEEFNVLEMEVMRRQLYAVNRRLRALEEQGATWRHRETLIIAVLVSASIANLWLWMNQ", "test": "co-IP; HEK293T cells 20 h after transfection with BIK-L61G, FATE and HA-RNF183 cDNAs; lysed in NDLB, immunoprecipitated and immunoblotted as indicated", "note": "These are yes or no findings as the source states them, for the method shown. In cells and extracts the contact can be indirect. Some binding calls cover weakened binding; strength is not graded here."}
{"substance": "BIK-L61G (from UniProt Q13323 1-160)", "values": [{"measurement": "binding", "value": "binds"}]}
